{
  "source": "patent US20110207751A1",
  "about": "“HETEROCYCLIC COMPOUNDS AND USES AS ANTICANCER AGENTS” (priority 2010, published 2011)",
  "key": {"[1]": {"test_system": "KB200 cells over-expressing multiple drug resistant (MDR) gene", "experiment": "Inhibition of cell proliferation, xCelligence cell index", "assay_type": "cell-based", "details": "Homo sapiens, 72 h, read-out: calculated IC50"}, "[2]": {"test_system": "KB cells (parental cervical cancer cell line)", "experiment": "Inhibition of cell proliferation, xCelligence cell index", "assay_type": "cell-based", "details": "Homo sapiens, 72 h, read-out: calculated IC50"}},
  "data": [
    {"smiles": "COc1cc2c(c(OC)c1OC)-c1ccc(OC)c(=O)cc1[C@@H](NC(C)=O)CC2", "note": "[colchicine]", "values": [
      {"measurement": "IC50", "setting": "[1]", "result": 116, "unit": "nM"},
      {"measurement": "IC50", "setting": "[2]", "result": 8.2, "unit": "nM"}
    ]}
  ]
}
